Drawing on patent US6255273A, “Hydrofluoropolyether-based azeotropic or near azeotropic compositions” (Ausimont S.p.A., priority 1998, dated 2001), this text covers lifetime and ODP for two compounds.

The data set can be described thus: environmental characteristics: ODP, GWP, VOC, lifetime. Particulars: for ODP: CFC 11 = 1.

Where only a bound is given, the exact number is not on record here.

As for `FC(F)OC(F)(F)OC(F)F` [HFPE1, difluoromethoxy-bis(difluoromethyl ether)], the lifetime was below 10 years and the ODP is 0.

For the compound `FC(F)OC(F)(F)C(F)(F)OC(F)F` [HFPE2, 1-difluoromethoxy-1,1,2,2-tetrafluoroethyl difluoromethyl ether], the lifetime is listed as below 10 years and the ODP worked out at 0.
